# Assay results taken from patent publication US20250019400A1 (SHENZHEN WINKEY TECHNOLOGY CO., LTD, priority 2022, published 2025).
# Test: general procedure: peptide synthesis; Amide Resin
# Details: whole synthesis, scale of the general procedure 5 g resin
row,Substance,final purity (method not given) [%]
1,Ac-WAAPFLRA-NH2,98
2,Ac-SMGALA-NH2,99.4
3,Ac-VKVLQW-NH2,98
